Measurements reported in PubChem BioAssay AID743458 (Peter MacCallum Cancer Centre, 2014)

- Test: 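Identify genes whose loss lifts vorinostat resistance in colon cancer cells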 (follow-up of hits)
- Cell system: human HCT116-VR colon cancer cells made resistant to vorinostat
- Reagents: single siRNA or pool against human genes, 25 nM per single siRNA
- Timing: about 72 h after transfection, including 24 h of drug
- Treatment: vorinostat, 2.5 µM final, for 24 h
- Measured: 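Cell viability by fluorescence and apoptosis by caspase 3/7 luminescence under vorinostat, background-corrected, averaged across two plate copies and given as fold change versus mock transfection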
- Reading the numbers: viability relative to mock: higher = more living cells than mock; caspase activity relative to mock: higher = more apoptosis than mock
- Hit rule: 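An siRNA counts as active if classed as reduced viability or as caspase activation, otherwise inactive; a hit class needed wells that remained healthy in the absence of drug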
This is a random part of about 1,800 deposited reagents. 732 of them (41%) were called active. 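Calls are per siRNA reagent; a gene was deemed confirmed only if most of its four siRNAs scored.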 The numbers tell different reagents against one gene apart.

target gene | reagent no. | viability relative to mock | caspase activity relative to mock | viability hit class | caspase hit class | Call
GPI | 1 | 0.94 | 0.76 | no change | no change | inactive
GPI | 2 | 0.72 | 3.21 | no change | caspase activation | active
GPI | 3 | 0.89 | 0.9 | no change | no change | inactive
GPI | 4 | 0.68 | 2.02 | no change | no change | inactive
GUCY2D | 1 | 1.02 | 1.44 | no change | no change | inactive
GUCY2D | 2 | 0.8 | 1.52 | no change | no change | inactive
GUCY2D | 3 | 0.47 | 2.51 | reduced viability | no change | active
GUCY2D | 4 | 0.2 | 2.51 | reduced viability | no change | active
NAT8 | 1 | 0.44 | 4.65 | reduced viability | caspase activation | active
NAT8 | 2 | 1 | 1.98 | no change | no change | inactive
NAT8 | 3 | 0.84 | 1.69 | no change | no change | inactive
NAT8 | 4 | 0.8 | 1.29 | no change | no change | inactive
C1orf210 | 1 | 0.37 | 5.34 | reduced viability | caspase activation | active
C1orf210 | 2 | 0.72 | 2.78 | no change | caspase activation | active
C1orf210 | 3 | 0.34 | 5.61 | reduced viability | caspase activation | active
C1orf210 | 4 | 1.04 | 0.98 | no change | no change | inactive
PFKL | 1 | 0.78 | 1.48 | no change | no change | inactive
PFKL | 2 | 0.92 | 1.92 | no change | no change | inactive
PFKL | 3 | 0.76 | 5.55 | no change | caspase activation | active
PFKL | 4 | 0.82 | 2.31 | no change | no change | inactive
DNAI2 | 1 | 0.82 | 2.36 | no change | no change | inactive
DNAI2 | 2 | 0.83 | 1.56 | no change | no change | inactive
DNAI2 | 3 | 0.98 | 1.29 | no change | no change | inactive
DNAI2 | 4 | 0.23 | 3.29 | reduced viability | caspase activation | active

Part of the list above, limited to “viability hit class”.
DNAI2 #1	no change
DNAI2 #2	no change
DNAI2 #3	no change
DNAI2 #4	reduced viability
